PubChem BioAssay AID493014 (National Center for Advancing Translational Sciences (NCATS), 2011)
This is one part of the list. The main result of the screen is listed elsewhere. These columns were measured beside it and carry no call. The list favours compounds with an active or inconclusive main result. The note in brackets gives the kind of curve behind each potency; many fits are weak.

Experiment: qHTS Assay to Find Inhibitors of Chronic Active B-Cell Receptor Signaling
Conditions: ABC-DLBCL IkBa-CBG/CBR reporter, luminescence ratio (green luciferase fused to IkBa over red control in TMD8 lymphoma cells), 4 h
In short: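 Compounds up to 46 uM were incubated four hours with TMD8 cells whose green CBG68 luciferase is fused to IkappaBalpha; red CBR luminescence normalised the signal, and concentration-effect curves were fitted to fusion, red and ratio data.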

[1] = measured here: CBR red luminescence, cell number

Row | Compound | AC50 (measured here: IkBa-CBG green luminescence) | AC50 [1]
1 | COc1ccc(NC(=S)N(CCc2c(C)[nH]c3ccc(C)cc23)Cc2cccs2)cc1 | 4.11 µM [falling, partial curve, poor fit] | –
2 | O=C(O)CSC1CC(=O)N(c2cccc(Cl)c2)C1=O (configuration not stated) | – | 35.5 µM [falling, single point]
3 | COc1ccc(-c2cc(C(=O)N(C)CC(=O)Nc3cccc(F)c3)c3ccccc3n2)cc1 | – | 29.1 µM [falling, single point]
4 | N#C/C(=C\c1ccc[nH]1)S(=O)(=O)c1ccccc1 | – | 29.1 µM [rising, partial curve, poor fit]
5 | O=C(Nc1nnc(-c2ccco2)s1)C1CCCCC1 | – | 2 µM [falling, full curve, poor fit]
6 | N/C(=N\OC(=O)C1CCCCC1)c1ccc(Cl)cc1 | – | 11.2 µM [rising, single point]
7 | CCOC(=O)C1CCCN(Cc2ccc(OCc3ccccc3)cc2)C1 (configuration not stated) | – | 35.5 µM [falling, single point]
8 | O=C(NN/C(=N/S(=O)(=O)c1ccc(Cl)cc1)c1ccccc1)c1cccc(Cl)c1 | – | 17.8 µM [falling, single point]
9 | CN(C)S(=O)(=O)c1cccc(C(=O)NCc2cccs2)c1 | – | 4.61 µM [rising, partial curve, poor fit]
10 | COc1cc(OC)c(OC)cc1CNC(=O)CCN1C(=O)c2cccc([N+](=O)[O-])c2C1=O | – | 3.98 µM [falling, full curve, poor fit]
11 | CCN1CCSc2ccc(C(=O)NCc3ccccc3Br)cc21 | – | 28.2 µM [falling, partial curve, poor fit]
12 | O=c1ccn(CCOc2ccc(Cl)cc2)c(=O)[nH]1 | – | 5.62 µM [falling, full curve, poor fit]
13 | O=C(Nc1ccc(SC(F)F)cc1)c1ccccc1F | – | 35.5 µM [falling, single point]
14 | Cc1cccc(NC(=O)C2=C(O)c3ccccc3N(C)S2(=O)=O)c1 | – | 14.6 µM [falling, partial curve]
15 | CCOC(=O)c1cc2c(ccn2C)n1Cc1ccc(C#N)cc1 | – | 5.62 µM [rising, single point]
16 | COc1nc(NCc2ccc(Cl)cc2)nc(OC)n1 | – | 14.1 µM [rising, single point]
17 | COc1ccc(NC(=O)Cn2c(-c3ccccc3)cn(-c3ccc(C)cc3)c2=O)cc1 | – | 14.6 µM [rising, partial curve]
18 | COCCN(CCOC)C(=O)Nc1ccc(Cl)cc1 | – | 2.24 µM [rising, full curve, poor fit]
19 | C#CCSc1nnc(-c2ccc(C)cc2)o1 | – | 29.1 µM [falling, single point]
20 | Cc1cc(C(=O)COC(=O)[C@H](C)NC(=O)c2ccco2)c(C)n1Cc1ccco1 | – | 35.5 µM [rising, single point]
21 | COc1cccc(OCC(O)CNC(=O)c2oc3c(C)c(C)ccc3c2C)c1 (configuration not stated) | – | 14.1 µM [falling, single point]

Row | Compound | AC50 (measured here: IkBa-CBG green luminescence) | AC50 [1]
22 | COc1cccc(/C=N/N2CCN(C3c4ccccc4-c4ccccc43)CC2)c1O | – | 35.5 µM [falling, single point]
23 | Cc1cc(C)cc(N(CC(=O)NC(C)(C)C)C(=O)CNC(=O)c2cccs2)c1 | – | 3.55 µM [falling, single point]
24 | CCn1c(=O)c(C(=O)Nc2nc3ccccc3[nH]2)c(O)c2ccccc21 | – | 5.62 µM [falling, partial curve, poor fit]
25 | CCc1ccc(NCc2ccc(OC)c(Cn3ccnc3)c2)cc1 | – | 35.5 µM [rising, single point]
26 | Cc1cc(C)n(CCC(=O)N/N=C/c2c(O)ccc3ccccc23)n1 | – | 3.98 µM [falling, partial curve]
27 | COc1cccc(NC(=O)[C@H](Cc2c[nH]c3ccccc23)NC(=O)[C@@H]2Cc3ccccc3CN2)c1 | – | 35.5 µM [falling, single point]
28 | COC(=O)c1ccc(-n2ccnc2)cc1 | – | 31.6 µM [falling, partial curve, poor fit]
29 | C=CCN1C2CCCC1CC(NC(=S)Nc1ccc(Cl)cc1)C2 (configuration not stated) | – | 11.2 µM [falling, partial curve]
30 | CC(=O)NC1(c2nnnn2CCOC(=O)Nc2ccc(Cl)cc2)CCCC1 | – | 4.47 µM [rising, partial curve, poor fit]
31 | COc1ccc(C(=O)c2c3ccc([N+](=O)[O-])cc3[n+]([O-])n2CCCN)cc1 | – | 16.4 µM [falling, single point]
32 | CCOC(=O)N1CCN(Cc2nc3cc(NC(=O)C(C)C)ccc3n2CC)CC1 | – | 6.31 µM [rising, single point]
33 | Cc1ccc(NC(=S)Nc2ccccn2)c(C)c1 | – | 8.91 µM [rising, partial curve, poor fit]
34 | CCOCCCNC(=O)c1ccc(N(C)S(=O)(=O)c2ccc(OC)cc2)cc1 | – | 23.1 µM [rising, single point]
35 | CC1CCC2(CC1)NC(=O)N(NC(=O)c1ccc(OC(C)C)cc1)C2=O (configuration not stated) | – | 3.26 µM [falling, partial curve, poor fit]
36 | Cc1ccc(C)c(/C=N/Nc2nc3ccccc3c(=O)n2O)c1 | – | 14.1 µM [rising, partial curve, poor fit]
37 | CCc1nc(N[C@@H](CC(C)C)C(=O)O)c2oc3ccccc3c2n1 | – | 11.2 µM [falling, partial curve, poor fit]
38 | C#CC(CC)(CC)NC(=O)c1ccc(Br)s1 | – | 22.4 µM [rising, single point]
39 | COc1ccc(-c2nnc(SCC(=O)c3ccc[nH]3)o2)cc1 | – | 5.17 µM [falling, partial curve, poor fit]
40 | Cc1cccc(N2CCN(C(=O)c3cccn4c(=O)c5c(C)c(C)sc5nc34)CC2)c1C | – | 29.1 µM [rising, single point]
41 | O=C(Cc1ccccc1)NNC(=S)Nc1ccccc1 | – | 10 µM [rising, single point]
42 | Cc1cccc(OCC(=O)Nc2ccc3c(c2)nc(CN2CCCCC2)n3C)c1 | – | 35.5 µM [falling, partial curve, poor fit]

Taken from the entries so far (2 entries):
Row | Compound | AC50 (measured here: IkBa-CBG green luminescence) | AC50 [1]
40 | Cc1cccc(N2CCN(C(=O)c3cccn4c(=O)c5c(C)c(C)sc5nc34)CC2)c1C | – | 29.1 µM [rising, single point]
41 | O=C(Cc1ccccc1)NNC(=S)Nc1ccccc1 | – | 10 µM [rising, single point]
